This note sets out measurements from paper PMC6838312.

Chains of the proteins cited; added tags and fusions are not shown.
UniProt P58462: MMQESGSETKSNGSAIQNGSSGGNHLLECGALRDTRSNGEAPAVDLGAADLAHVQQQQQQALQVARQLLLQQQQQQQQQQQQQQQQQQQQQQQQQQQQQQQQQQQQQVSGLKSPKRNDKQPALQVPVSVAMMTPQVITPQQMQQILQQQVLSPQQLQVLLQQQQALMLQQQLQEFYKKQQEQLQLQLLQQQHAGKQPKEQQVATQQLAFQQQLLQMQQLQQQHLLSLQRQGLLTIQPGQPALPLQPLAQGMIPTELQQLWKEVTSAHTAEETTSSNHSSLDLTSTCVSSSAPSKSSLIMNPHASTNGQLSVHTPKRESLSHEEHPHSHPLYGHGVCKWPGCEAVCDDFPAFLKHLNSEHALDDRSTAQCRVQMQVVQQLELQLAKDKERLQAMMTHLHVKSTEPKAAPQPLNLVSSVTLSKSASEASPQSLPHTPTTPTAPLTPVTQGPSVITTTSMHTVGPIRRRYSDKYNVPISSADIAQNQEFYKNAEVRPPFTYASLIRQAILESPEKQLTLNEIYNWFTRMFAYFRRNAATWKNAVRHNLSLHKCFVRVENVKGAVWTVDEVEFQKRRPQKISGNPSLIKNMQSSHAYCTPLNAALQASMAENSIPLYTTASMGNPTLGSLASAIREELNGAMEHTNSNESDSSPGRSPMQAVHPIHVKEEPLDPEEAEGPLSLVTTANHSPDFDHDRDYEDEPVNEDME
UniProt P28033: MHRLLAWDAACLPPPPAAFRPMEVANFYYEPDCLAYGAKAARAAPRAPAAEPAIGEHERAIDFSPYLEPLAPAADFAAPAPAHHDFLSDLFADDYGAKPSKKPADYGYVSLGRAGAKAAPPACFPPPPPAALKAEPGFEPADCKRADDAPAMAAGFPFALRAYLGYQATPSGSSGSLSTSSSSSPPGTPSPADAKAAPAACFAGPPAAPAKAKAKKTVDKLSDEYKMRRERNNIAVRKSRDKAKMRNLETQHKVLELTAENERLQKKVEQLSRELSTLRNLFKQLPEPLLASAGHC
UniProt A2A935: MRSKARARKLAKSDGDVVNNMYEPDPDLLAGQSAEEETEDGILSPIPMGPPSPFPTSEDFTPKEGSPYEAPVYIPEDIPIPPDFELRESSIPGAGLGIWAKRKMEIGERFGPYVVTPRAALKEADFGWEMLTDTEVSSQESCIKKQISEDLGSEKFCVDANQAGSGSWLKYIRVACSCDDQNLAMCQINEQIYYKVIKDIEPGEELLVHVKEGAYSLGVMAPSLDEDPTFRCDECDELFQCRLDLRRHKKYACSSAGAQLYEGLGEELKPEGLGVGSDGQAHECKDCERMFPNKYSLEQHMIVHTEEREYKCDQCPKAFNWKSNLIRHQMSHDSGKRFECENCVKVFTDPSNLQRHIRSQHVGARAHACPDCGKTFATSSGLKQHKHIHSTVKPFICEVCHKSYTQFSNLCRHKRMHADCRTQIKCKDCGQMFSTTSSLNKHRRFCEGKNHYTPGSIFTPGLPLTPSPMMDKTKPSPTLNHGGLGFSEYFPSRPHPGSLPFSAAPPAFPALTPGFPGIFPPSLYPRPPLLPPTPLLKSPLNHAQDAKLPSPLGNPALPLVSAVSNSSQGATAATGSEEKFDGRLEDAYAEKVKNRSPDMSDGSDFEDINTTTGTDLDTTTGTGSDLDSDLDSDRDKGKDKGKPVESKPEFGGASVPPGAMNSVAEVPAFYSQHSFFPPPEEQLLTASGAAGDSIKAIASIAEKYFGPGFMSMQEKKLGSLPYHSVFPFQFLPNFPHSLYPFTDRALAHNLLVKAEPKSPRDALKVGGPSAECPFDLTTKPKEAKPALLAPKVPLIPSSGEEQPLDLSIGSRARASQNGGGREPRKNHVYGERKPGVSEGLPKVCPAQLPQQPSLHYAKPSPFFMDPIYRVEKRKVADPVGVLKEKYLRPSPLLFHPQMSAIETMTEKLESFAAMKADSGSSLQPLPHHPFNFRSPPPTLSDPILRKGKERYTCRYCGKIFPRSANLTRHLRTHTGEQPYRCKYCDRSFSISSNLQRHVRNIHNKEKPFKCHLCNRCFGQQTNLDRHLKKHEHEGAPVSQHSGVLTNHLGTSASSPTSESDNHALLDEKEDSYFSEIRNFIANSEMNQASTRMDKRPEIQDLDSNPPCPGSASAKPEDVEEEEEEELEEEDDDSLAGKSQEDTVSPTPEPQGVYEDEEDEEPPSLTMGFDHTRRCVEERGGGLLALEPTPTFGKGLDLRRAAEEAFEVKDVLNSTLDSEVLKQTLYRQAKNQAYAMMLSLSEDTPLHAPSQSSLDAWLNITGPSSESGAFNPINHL

These are yes or no findings as the source states them, for the method shown. Binding seen in cells or lysates may run through a third protein. Some results given as binding are weak or reduced against the parent protein; the word gives no strength.

The target of assay [1] is Foxp1 (mouse (endogenous in SVF cells from BAT)) (UniProt P58462). The assay is described as follows: co-IP; in vivo Co-IP: total lysates of SVF cells cultured from wild-type mice, incubated overnight at 4 °C with antibodies or normal IgG as control, Protein A/G PLUS-Agarose, western blotting; endogenous proteins.
Another assay addresses Foxp1-His (UniProt P58462). The assay is described as follows: co-IP; in vitro Co-IP: total lysates of HEK293T cells co-transfected with Foxp1-His, Prdm16-Flag and C/ebpβ-Myc plasmids, incubated overnight at 4 °C with antibodies or normal IgG as control, Protein A/G PLUS-Agarose, western blotting. In general terms: In western blotting, separated proteins are transferred to a membrane and probed.

With C/ebpβ (from UniProt P28033 1-296), the binding entry in assay [1] is “binds”.
Regarding C/ebpβ-Myc (from UniProt P28033 1-296), the binding entry in the assay with Foxp1-His is on record as “binds”.
With Prdm16 (from UniProt A2A935 1-1275), the binding result in assay [1] is given as “binds”.
As for “Prdm16-Flag (from UniProt A2A935 1-1275)”, the binding entry in the assay with Foxp1-His is “binds”.
